# Publication doi:10.1101/2020.09.03.281279
# No constants are given. Whether binding was seen depends on the method and setting. Binding seen in cells or lysates may run through a third protein. Here binding means that the protein was enriched with, or labelled near, the bait; the list need not be complete. Sequences can lack the tags named with a protein.
# T1: RqcH C-terminally tagged with a FLAG3 epitope (B. subtilis) (UniProt O34693)
# T1 sequence: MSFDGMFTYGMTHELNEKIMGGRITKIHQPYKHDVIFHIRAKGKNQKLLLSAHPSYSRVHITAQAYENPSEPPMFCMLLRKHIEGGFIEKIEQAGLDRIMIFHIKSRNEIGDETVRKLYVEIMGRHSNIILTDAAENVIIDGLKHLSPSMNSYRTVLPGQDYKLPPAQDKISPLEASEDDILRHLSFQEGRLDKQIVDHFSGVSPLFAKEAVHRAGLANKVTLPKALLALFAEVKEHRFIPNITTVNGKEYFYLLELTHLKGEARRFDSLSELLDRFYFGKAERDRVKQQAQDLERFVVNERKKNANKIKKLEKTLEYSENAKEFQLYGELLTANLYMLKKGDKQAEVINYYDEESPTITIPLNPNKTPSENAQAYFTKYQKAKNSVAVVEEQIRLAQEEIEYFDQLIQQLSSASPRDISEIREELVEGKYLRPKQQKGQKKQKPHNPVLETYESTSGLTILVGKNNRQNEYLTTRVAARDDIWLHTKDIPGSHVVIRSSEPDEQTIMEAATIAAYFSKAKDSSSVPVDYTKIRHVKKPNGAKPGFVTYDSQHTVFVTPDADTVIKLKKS
# T2: YabO with a C-terminal FLAG3-tag (B. subtilis) (UniProt P37557)
# T2 sequence: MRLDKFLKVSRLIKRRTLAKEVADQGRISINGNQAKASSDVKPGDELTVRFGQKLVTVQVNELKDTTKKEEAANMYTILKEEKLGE
# Tests used:
# [1] = target: T1, RqcH C-terminally tagged with a FLAG3 epitope (B. subtilis); assay: affinity purification with mass spectrometry
# [2] = target: T2, YabO with a C-terminal FLAG3-tag (B. subtilis); assay: affinity purification with mass spectrometry
Binder,binding [1],binding [2]
"YabO (endogenous, found in the RqcH-FLAG3 pull-out) (protein, UniProt P37557 1-86) MRLDKFLKVSRLIKRRTLAKEVADQGRISINGNQAKASSDVKPGDELTVRFGQKLVTVQVNELKDTTKKEEAANMYTILKEEKLGE",binds,–
"RqcH (endogenous, found in the YabO-FLAG3 pull-out) (protein, UniProt O34693 1-570) MSFDGMFTYGMTHELNEKIMGGRITKIHQPYKHDVIFHIRAKGKNQKLLLSAHPSYSRVHITAQAYENPSEPPMFCMLLRKHIEGGFIEKIEQAGLDRIMIFHIKSRNEIGDETVRKLYVEIMGRHSNIILTDAAENVIIDGLKHLSPSMNSYRTVLPGQDYKLPPAQDKISPLEASEDDILRHLSFQEGRLDKQIVDHFSGVSPLFAKEAVHRAGLANKVTLPKALLALFAEVKEHRFIPNITTVNGKEYFYLLELTHLKGEARRFDSLSELLDRFYFGKAERDRVKQQAQDLERFVVNERKKNANKIKKLEKTLEYSENAKEFQLYGELLTANLYMLKKGDKQAEVINYYDEESPTITIPLNPNKTPSENAQAYFTKYQKAKNSVAVVEEQIRLAQEEIEYFDQLIQQLSSASPRDISEIREELVEGKYLRPKQQKGQKKQKPHNPVLETYESTSGLTILVGKNNRQNEYLTTRVAARDDIWLHTKDIPGSHVVIRSSEPDEQTIMEAATIAAYFSKAKDSSSVPVDYTKIRHVKKPNGAKPGFVTYDSQHTVFVTPDADTVIKLKKS",–,binds
"ribosomal silencing factor RsfS (protein, UniProt P54457 1-118) MNQKSILKIAAAACDDKRAEDILALDMEGISLVADYFLICHGNSDKQVQAIAREIKDQADENGIQVKKMEGFDEARWVLVDLGDVVVHVFHKDERSYYNLEKLWGDAPLADLDFGMNQ",–,binds
